Results: paper PMC12040169 (PLOS Biology, 2025)
The list shows a part of the results.

System: T1, CTL2-GFP (C. trachomatis L2/434/Bu, GFP-expressing)
T1 construct: L2/434/Bu, GFP-expressing
Design: species or system HeLa; Intracellular C. trachomatis growth in HeLa cells, bulk GFP fluorescence relative to DMSO
Conditions: bulk GFP, single well; 28.5 h, 10 µM; inhibitor

Row | SMILES | % of control remaining
1 | CC(C)(C)c1cc(C(=O)NCC2CCCN2)n(Cc2ccc(Cl)cc2Cl)n1 (centres unmarked) [CBK115920C] | 63.1957%
2 | COc1ccccc1-c1nccnc1NCc1ccccn1 [CBK036894] | 105.316%
3 | CN1CCCN(c2cncc(-c3ccc4c(c3)OCO4)n2)CC1 [CBK065978] | 181.053%
4 | CCOC(=O)c1sc(NC(=O)CCNC(=O)c2ccccc2C(=O)O)c(C#N)c1C [CBK295152] | 96.3419%
5 | COc1ccccc1-c1ccc2c(c1)COC1(CCN(C)CC1)O2 [CBK061024] | 128.457%
6 | COc1ccc(C)cc1-n1ccc(C(=O)NC2CCSCC2)n1 [CBK305502] | 107.343%
7 | O=C(c1cn2ccccc2n1)N1CCCN(Cc2cscn2)CC1 [CBK305352] | 109.616%
8 | COc1cc2c(cc1OC)C1(CCN(C(=O)Nc3ccc(F)cc3F)CC1)NC(=O)C2 [CBK047264] | 100%
9 | CCCc1ccc(C(=O)N2CCC(C(=O)c3cccnc3)CC2)o1 [CBK285482] | 98.9743%
10 | COc1ccc(OC(C)C(=O)Nc2cc(OC)c(Cl)cc2OC)cc1 (centres unmarked) [CBK263627] | 114.957%
11 | O=C(CSc1nnc(Cc2cccc3ccccc23)n1-c1ccccc1)N1CCc2ccccc21 [CBK266697] | 138.805%
12 | CC1(C)CC(CN)(c2ccccc2)CCO1 (centres unmarked) [CBK025559C] | 138.486%
13 | CC(=O)Nc1ccc(-c2cccc(COC3CCN(C(=O)Cc4cc(F)cc(F)c4F)CC3)c2)cc1 [CBK149489] | 100.546%
14 | CCN(CC)C(=O)c1ccc(NS(=O)(=O)c2cccc(Cl)c2C)cc1 [CBK034393] | 93.9454%
15 | Cc1c(C#N)c(=O)ncn1Cc1ccncc1 [CBK021603] | 110.792%
16 | COc1ccc(Cl)cc1N1CCN(CCN2CCCCC2)CC1 [CBK126445] | 108.44%
17 | CCn1c(CN[C@@H]2CCC[C@H]2Cc2cc(C)no2)cnc1SC [CBK282965] | 138.976%
18 | OC1(c2cccnc2F)CCN(Cc2cc(F)ccc2F)CC1 [CBK284371] | 127.14%
19 | O=C(CC(CN1CCN(Cc2ccccn2)CC1)C(=O)O)NCc1ccccc1 (centres unmarked) [CBK286865] | 137.3%
20 | Cc1cc2c(s1)c1cnn(CCN3CCCC3)c(=O)c1n2C [CBK284180] | 140.703%
21 | COc1ccc(C(C)=O)cc1Cc1c(O)nc(SC)nc1O [CBK262699] | 127.311%
22 | O=C(O)CCC(=O)N1CCN(c2ncccn2)CC1 [CBK057422] | 114.343%
23 | CCc1nc2c(OCc3ccccc3)cccn2c1N(C)C(=O)c1ccncc1 [CBK147876] | 100.617%
24 | COc1ccc(CCNC(=O)N(C)C2CCN(C)C2)cc1OC (centres unmarked) [CBK156007] | 113.107%
25 | O=C(NCCNc1ccc(Cl)cc1[N+](=O)[O-])c1c(F)cccc1F [CBK269643] | 104.015%

Row | SMILES | % of control remaining
26 | CC(C)(CN)CN(Cc1ccccc1Br)C(=O)NC(c1ccccc1)c1ccccc1 [CBK002488C] | 48.9418%
27 | O=C(NC(c1ccccc1)c1ccccn1)C1CCN(C(=O)Oc2ccccc2)CC1 (centres unmarked) [CBK060105] | 111.209%
28 | CSc1ncc(Cl)c(C(=O)Nc2sc3c(c2C(=O)NCc2ccco2)CCC3)n1 [CBK268991] | 154.669%
29 | Cc1n[nH]c(C)c1CNC(=O)c1[nH]c2c(Cl)cccc2c1C [CBK282534] | 108.172%
30 | CN(c1cncc(Cl)n1)C1CCN(Cc2ccccc2)CC1 [CBK012767F] | 149.754%
31 | O=C1Nc2c(cnn2-c2ccc(Cl)cc2)C2=NCCN12 [CBK284341] | 69.8867%
32 | CCn1c(C)nc2cc(S(N)(=O)=O)ccc21 [CBK260950] | 108.903%
33 | CCNc1nc(=S)[nH]c2sc3c(c12)CCC(C)C3 (centres unmarked) [CBK086242] | 169.163%
34 | Cc1ccc([N+](=O)[O-])cc1NC(=O)C1CCCN1S(=O)(=O)c1ccc(Cl)cc1 (centres unmarked) [CBK033769] | 112.937%
35 | CCOc1ccc(-c2ccnc(N3C[C@@H](C)O[C@@H](C)C3)n2)cc1C(=O)O [CBK306584] | 152.221%
36 | CCOc1ccc(OC(=O)C2CCN(C(=O)CC(C)C)CC2)cc1 [CBK154228] | 93.0002%
37 | CCCN1CCN(c2ncnc3scc(C4COc5ccccc5O4)c23)CC1 (centres unmarked) [CBK266590] | 146.694%
38 | CCN(CC(=O)NCc1cccnc1)S(=O)(=O)c1ccc2ccccc2c1 [CBK300514] | 105.132%
39 | C=CCNc1nc(N)c(/C(N)=N/C#N)s1 [CBK019028] | 89.3885%
40 | CCn1cc(CN(CCO)C(=O)c2cccc(C#N)c2C)cn1 [CBK304196] | 97.2343%
41 | Cc1cc(NS(=O)(=O)c2ccc(NC(=O)c3cc(-c4ccc(C)o4)nc4ccccc34)cc2)nc(C)n1 [CBK262628] | 117.641%
42 | O=C1O[C@@H](CCl)CN1c1ccc(N2CCOCC2)c(F)c1 [CBK017613] | 59.9241%
43 | O=[N+]([O-])c1cc(S(=O)(=O)Nc2cccc(-c3cnco3)c2)ccc1Cl [CBK067125] | 52.9834%
44 | COc1ccc(S(=O)(=O)Nc2ccncc2)cc1N(C)S(=O)(=O)c1ccccc1 [CBK267179] | 133.417%
45 | c1ccc(CSc2ccc(-c3ccncc3)nn2)nc1 [CBK287638] | 158.308%
46 | CN(C)CCOc1ccc2c(c1)OC1(CCN(C(=O)c3ccc4sc(N)nc4c3)CC1)CC2=O [CBK169380] | 119.327%
47 | CC(C)C(=O)NC(c1ccc(C(C)C)cc1)c1cc([N+](=O)[O-])c2cccnc2c1O (centres unmarked) [CBK265303] | 119.503%
48 | CCN(CC)C(=O)CN1CCN(c2nccnc2OCC2COc3ccccc3O2)CC1 (centres unmarked) [CBK082803T] | 56.0152%
49 | Cc1cccc(CN(CC(=O)Nc2ccc(F)cc2F)S(=O)(=O)c2ccc(Cl)cc2)c1 [CBK265164] | 124.924%
50 | O=C(CSc1ncccc1C(=O)O)Nc1ccc(Oc2ccccc2)cc1 [CBK266340] | 115.833%

Structural class: the compounds so far containing an NH in an aromatic ring (two)
Row | SMILES | % of control remaining
29 | Cc1n[nH]c(C)c1CNC(=O)c1[nH]c2c(Cl)cccc2c1C [CBK282534] | 108.172%
33 | CCNc1nc(=S)[nH]c2sc3c(c12)CCC(C)C3 (centres unmarked) [CBK086242] | 169.163%
